The list shows only some results of the screen, not a fair sample: it gathers tests that were run many times, whatever their T/C, doses with no T/C, and many T/C values between a quarter and a half above the control. Other doses and runs of a compound stand elsewhere. T/C: endpoint of the treated group in % of that of the vehicle group. Schedule codes are those of the source, taken here to give the interval after Q, in days (D) or hours (H), and the number of doses after X. Some entries give survivors of the animals treated and no T/C: the source files T/C as zero there, which appears to mark a toxic dose or a test without result, not a measured value. Counts of survivors are from the toxicity check (mostly the fifth day) where no day follows; animals may have died later.
Tested on: MX-1 breast xenograft, intrarenal, nude mice, tumor weight
Assay: NCI In Vivo Anticancer Drug Screen. Data for tumor model Human Mammary Carcinoma MX-1 Xenograft (intrarenal inoculation) in NU/NU BALB/C (nude) mice
Details: T/C endpoint: mean tumor weight change, higher T/C = larger tumour; for T/C: evaluated on day 11
How it was run: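 Compounds were given to mice carrying transplanted tumors, and tumor size or survival was measured. Each value is the treated-group measurement (T) divided by the vehicle-treated control-group measurement (C).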

[1] = dose: 100.0 mg/kg/injection, schedule: Q01DX010 (sc), vehicle: saline
[2] = dose: 200.0 mg/kg/injection, schedule: Q01DX010 (sc), vehicle: saline
[3] = dose: 25.0 mg/kg/injection, schedule: Q04DX003 (ip), vehicle: saline with Tween-80
[4] = dose: 200.0 mg/kg/injection, schedule: Q04DX003 (ip), vehicle: saline

Question: Which survivor count (dose: 50.0 mg/kg/injection, schedule: Q01DX010 (sc), vehicle: saline) does the source give for O=c1n(CC2CO2)c(=O)n(CC2CO2)c(=O)n1CC1CO1 (centres undefined) here?
Answer: The survivor count was 1 of 3 on day 11.

Question: What about the survivor count [1] of the same compound?
Answer: The survivor count was 0 of 3 on day 11.

Question: What about the survivor count (dose: 100.0 mg/kg/injection, schedule: Q04DX003 (sc), vehicle: suspension in saline) of the same compound?
Answer: Its survivor count is 0 of 6 on day 11.

Question: What about the survivor count [2] of the same compound?
Answer: Its survivor count is 0 of 2 on day 11.

Question: What about the survivor count (dose: 200.0 mg/kg/injection, schedule: Q04DX003 (sc), vehicle: suspension in saline) of the same compound?
Answer: Its survivor count is 0 of 6 on day 11.

Question: For CO[C@@]12[C@@H]3N[C@@H]3CN1C1=C(C(=O)C(N3CCCC3)=C(C)C1=O)[C@@H]2COC(N)=O, which survivor count (dose: 12.0 mg/kg/injection, schedule: Q04DX003 (ip), vehicle: saline with Tween-80) is on record?
Answer: The survivor count was 0 of 6 on day 11.

Question: What about the survivor count (dose: 12.5 mg/kg/injection, schedule: Q04DX003 (ip), vehicle: saline with Tween-80) of the same compound?
Answer: Its survivor count is 0 of 6 on day 11.

Question: And the survivor count [3]?
Answer: The survivor count was 0 of 6 on day 11.

Question: What about the survivor count (dose: 50.0 mg/kg/injection, schedule: Q04DX003 (ip), vehicle: saline with Tween-80) of the same compound?
Answer: The survivor count was 0 of 6 on day 11.

Question: What about the survivor count (dose: 100.0 mg/kg/injection, schedule: Q04DX003 (ip), vehicle: saline with Tween-80) of the same compound?
Answer: The survivor count was 0 of 6 on day 11.

Question: COc1ccc2[nH]c3ccc4cc[n+](CCN5CCC(C6CCN(CC[n+]7ccc8ccc9[nH]c%10ccc(OC)cc%10c9c8c7)CC6)CC5)cc4c3c2c1 was tested. Which survivor count (dose: 106.67 mg/kg/injection, schedule: Q04DX003 (ip), vehicle: other) did it give?
Answer: Its survivor count is 1 of 6 on day 11.

Question: Which survivor count (dose: 1.25 mg/kg/injection, schedule: Q04DX003 (ip), vehicle: Klucel (hydroxypropylcellulose) (HPC)) does the source give for C=C(C)C1C2CC3(C)C4(CO4)C4OC4C3(O)C1C(=O)O2 (centres undefined) here?
Answer: The survivor count was 0 of 5 on day 11.

Question: What about the survivor count (dose: 2.5 mg/kg/injection, schedule: Q04DX003 (ip), vehicle: Klucel (hydroxypropylcellulose) (HPC)) of the same compound?
Answer: The survivor count was 2 of 6 on day 11.

Question: What about the survivor count (dose: 5.0 mg/kg/injection, schedule: Q04DX003 (ip), vehicle: Klucel (hydroxypropylcellulose) (HPC)) of the same compound?
Answer: The survivor count was 0 of 6 on day 11.

Question: And the survivor count (dose: 10.0 mg/kg/injection, schedule: Q04DX003 (ip), vehicle: Klucel (hydroxypropylcellulose) (HPC))?
Answer: Its survivor count is 0 of 6 on day 11.

Question: And the survivor count (dose: 20.0 mg/kg/injection, schedule: Q04DX003 (ip), vehicle: Klucel (hydroxypropylcellulose) (HPC))?
Answer: Its survivor count is 0 of 6 on day 11.

Question: Which results are given for NCCSC(C[N+](=O)[O-])c1ccccc1Cl (centres undefined)?
Answer: survivor count [4]: 0 of 6 on day 11; survivor count (dose: 400.0 mg/kg/injection, schedule: Q04DX003 (ip), vehicle: saline): 0 of 6 on day 11

Question: Which results are given for CC(C)c1cc(C(=O)O)c(O)c(C(C)C)c1.CC(C)c1cc(C(=O)O)c(O)c(C(C)C)c1.[Cu]?
Answer: T/C [3]: 126 % of control; survivor count (dose: 200.0 mg/kg/injection, schedule: Q04DX003 (ip), vehicle: saline with Tween-80): 0 of 6 on day 11

Question: For BrCCC1(CCBr)CCCCC1, which T/C (dose: 150.0 mg/kg/injection, schedule: Q04DX003 (sc), vehicle: distilled water + alcohol) is on record?
Answer: Its T/C is 133 % of control.

Question: What about the T/C (dose: 300.0 mg/kg/injection, schedule: Q04DX003 (sc), vehicle: distilled water + alcohol) of the same compound?
Answer: The T/C was 131 % of control.

Question: What about the T/C (dose: 600.0 mg/kg/injection, schedule: Q04DX003 (sc), vehicle: distilled water + alcohol) of the same compound?
Answer: Its T/C is 127 % of control.

Question: What about the T/C (dose: 1200.0 mg/kg/injection, schedule: Q04DX003 (sc), vehicle: distilled water + alcohol) of the same compound?
Answer: The T/C was 135 % of control.

Question: O=P1(N(CCCl)CCCl)NCCCO1 (centres undefined) was tested. Which survivor count [1] did it give?
Answer: The survivor count was 0 of 3 on day 11.

Question: What about the survivor count [2] of the same compound?
Answer: The survivor count was 0 of 4 on day 11.

Question: And the survivor count [4]?
Answer: Its survivor count is 0 of 6 on day 11.

Question: What about the survivor count (dose: 200.0 mg/kg/injection, schedule: Q04DX003 (sc), vehicle: saline) of the same compound?
Answer: The survivor count was 1 of 3 on day 11.

Question: With Cn1c(=S)sc2nc3ccccc3n2c1=S as the compound, how does the T/C (dose: 60.0 mg/kg/injection, schedule: Q04DX003 (ip), vehicle: saline with Tween-80) read?
Answer: Its T/C is 129 % of control.

Question: What about the survivor count (dose: 240.0 mg/kg/injection, schedule: Q04DX003 (ip), vehicle: saline with Tween-80) of the same compound?
Answer: Its survivor count is 3 of 5 on day 11.

Question: What about the survivor count (dose: 480.0 mg/kg/injection, schedule: Q04DX003 (ip), vehicle: saline with Tween-80) of the same compound?
Answer: Its survivor count is 1 of 6 on day 11.

Question: How did the survivor count (dose: 2400.0 mg/kg/injection, schedule: Q04DX003 (sc), vehicle: saline + alcohol) turn out when C=CC(C)NC(=S)NNC(=S)NC (centres undefined) was run?
Answer: Its survivor count is 2 of 6 on day 11.

Question: With Cn1cc(NC(=O)c2cc(NC(=O)c3cc(NC=O)cn3C)cn2C)cc1C(=O)NCCC(=N)N as the compound, how does the survivor count (dose: 400.0 mg/kg/injection, schedule: Q04DX003 (ip), vehicle: water) read?
Answer: Its survivor count is 0 of 6 on day 11.

Question: What about the survivor count (dose: 800.0 mg/kg/injection, schedule: Q04DX003 (ip), vehicle: water) of the same compound?
Answer: Its survivor count is 0 of 6 on day 11.

Question: With CC(=O)NCCSSCCCCS(=O)O as the compound, how does the survivor count (dose: 600.0 mg/kg/injection, schedule: Q04DX003 (ip), vehicle: saline) read?
Answer: Its survivor count is 2 of 5 on day 11.

Question: What about the survivor count (dose: 1200.0 mg/kg/injection, schedule: Q04DX003 (ip), vehicle: saline) of the same compound?
Answer: The survivor count was 2 of 5 on day 11.

Question: How did the survivor count (dose: 300.0 mg/kg/injection, schedule: Q04DX003 (ip), vehicle: saline with Tween-80) turn out when COc1cc2c[n+](C)c3c(c2cc1OC)Cc1cc2c(cc1-3)OCO2 was run?
Answer: Its survivor count is 1 of 6 on day 11.

Question: What about the survivor count (dose: 600.0 mg/kg/injection, schedule: Q04DX003 (ip), vehicle: saline with Tween-80) of the same compound?
Answer: Its survivor count is 0 of 6 on day 11.

Question: CN(C)CCCOc1nc2c(c(=O)n(C)c(=O)n2C)n1C (tested in a mixture with another compound) was tested. Which survivor count (dose: 600.0 mg/kg/injection, schedule: Q04DX003 (ip), vehicle: Klucel (hydroxypropylcellulose) (HPC)) did it give?
Answer: Its survivor count is 0 of 6 on day 11.

Question: CCN(CC)c1cc(C(=O)O)cc(N(CC)CC)n1 was tested. Which survivor count (dose: 200.0 mg/kg/injection, schedule: Q04DX003 (ip), vehicle: other) did it give?
Answer: The survivor count was 0 of 6 on day 11.

Question: And the survivor count (dose: 400.0 mg/kg/injection, schedule: Q04DX003 (ip), vehicle: other)?
Answer: The survivor count was 0 of 6 on day 11.

Question: For Oc1ccc(/C=N/Nc2nnc(N/N=C/c3ccc(O)cc3O)c3ccccc23)c(O)c1, which survivor count (dose: 200.0 mg/kg/injection, schedule: Q04DX003 (ip), vehicle: suspension in saline) is on record?
Answer: Its survivor count is 3 of 6 on day 11.

Question: With C[C@]12CC[C@H](OC(=O)Cc3ccc(N(CCCl)CCCl)cc3)CC1=CC[C@@H]1[C@@H]2CC[C@]2(C)C(=O)CC[C@@H]12 as the compound, how does the survivor count (dose: 2000.0 mg/kg/injection, schedule: Q04DX003 (ip), vehicle: saline with Tween-80) read?
Answer: Its survivor count is 0 of 6 on day 11.

Question: CCn1cnc2c(=S)nc[nH]c21 was tested. Which survivor count (dose: 600.0 mg/kg/injection, schedule: Q04DX003 (sc), vehicle: saline) did it give?
Answer: The survivor count was 1 of 6 on day 11.

Question: What about the survivor count (dose: 1200.0 mg/kg/injection, schedule: Q04DX003 (sc), vehicle: saline) of the same compound?
Answer: The survivor count was 0 of 6 on day 11.

Question: C/C=C/C=C\C=C/C(O)CC(OP(=O)(O)O)C(C)(O)/C=C/C1CC=CC(=O)O1 (centres undefined) was tested. Which survivor count (dose: 48.0 mg/kg/injection, schedule: Q04DX003 (ip), vehicle: water) did it give?
Answer: Its survivor count is 2 of 6 on day 11.

Question: Which results are given for CN=C(NC#N)NCCSCc1nc[nH]c1C?
Answer: T/C (dose: 300.0 mg/kg/injection, schedule: Q04DX003 (sc), vehicle: Klucel (hydroxypropylcellulose) (HPC)): 146 % of control; T/C (dose: 1200.0 mg/kg/injection, schedule: Q04DX003 (sc), vehicle: Klucel (hydroxypropylcellulose) (HPC)): 130 % of control; survivor count (dose: 2400.0 mg/kg/injection, schedule: Q04DX003 (sc), vehicle: Klucel (hydroxypropylcellulose) (HPC)): 1 of 5 on day 11

Question: For N#CC(C#N)=C/C=C/c1cccc([N+](=O)[O-])c1, which T/C (dose: 100.0 mg/kg/injection, schedule: Q01DX010 (sc), vehicle: Klucel (hydroxypropylcellulose) (HPC)) is on record?
Answer: The T/C was 129 % of control.

Question: What about the T/C (dose: 800.0 mg/kg/injection, schedule: Q01DX010 (sc), vehicle: Klucel (hydroxypropylcellulose) (HPC)) of the same compound?
Answer: The T/C was 131 % of control.

Question: How did the survivor count (dose: 800.0 mg/kg/injection, schedule: Q04DX003 (ip), vehicle: Klucel (hydroxypropylcellulose) (HPC)) turn out when CN(C)CN1C(=O)S/C(=C2\C(=O)N(CN(C)C)c3ccccc32)C1=O was run?
Answer: The survivor count was 0 of 6 on day 11.

Question: For CO[C@@]12[C@@H]3N[C@@H]3CN1C1=C(C(=O)C(NCC3CCCO3)=C(C)C1=O)[C@@H]2COC(N)=O (some centres undefined), which survivor count (dose: 50.0 mg/kg/injection, schedule: Q04DX003 (ip), vehicle: distilled water + Tween-80) is on record?
Answer: Its survivor count is 0 of 6 on day 11.

Question: And the survivor count (dose: 100.0 mg/kg/injection, schedule: Q04DX003 (ip), vehicle: distilled water + Tween-80)?
Answer: Its survivor count is 0 of 6 on day 11.

From PubChem BioAssay AID298 (DTP/NCI, 2004)
